In this assay the target is PolD DP2 subunit from Pyrococcus abyssi (Pyrococcus abyssi) (UniProt Q9V2F4). Kind of assay: cryo-EM structure; 0.4 µM PolD (DP1 H451A), 1.2 µM PCNA, 0.7 µM primed DNA duplex (18-mer primer, 7-nt overhang), 0.1 mM dAMPCPP, buffer F (20 mM Na-Hepes pH 8, 0.01 mM NaCl, 2 mM Mg-acetate), 20 min at 4 °C; single-particle cryo-EM, 3.77 Å; both purified.

Chains of the proteins cited; added tags and fusions are not shown. Lines headed by an entry give the natural chain unless they say otherwise; changes in a name come on top.
UniProt Q9V2F4: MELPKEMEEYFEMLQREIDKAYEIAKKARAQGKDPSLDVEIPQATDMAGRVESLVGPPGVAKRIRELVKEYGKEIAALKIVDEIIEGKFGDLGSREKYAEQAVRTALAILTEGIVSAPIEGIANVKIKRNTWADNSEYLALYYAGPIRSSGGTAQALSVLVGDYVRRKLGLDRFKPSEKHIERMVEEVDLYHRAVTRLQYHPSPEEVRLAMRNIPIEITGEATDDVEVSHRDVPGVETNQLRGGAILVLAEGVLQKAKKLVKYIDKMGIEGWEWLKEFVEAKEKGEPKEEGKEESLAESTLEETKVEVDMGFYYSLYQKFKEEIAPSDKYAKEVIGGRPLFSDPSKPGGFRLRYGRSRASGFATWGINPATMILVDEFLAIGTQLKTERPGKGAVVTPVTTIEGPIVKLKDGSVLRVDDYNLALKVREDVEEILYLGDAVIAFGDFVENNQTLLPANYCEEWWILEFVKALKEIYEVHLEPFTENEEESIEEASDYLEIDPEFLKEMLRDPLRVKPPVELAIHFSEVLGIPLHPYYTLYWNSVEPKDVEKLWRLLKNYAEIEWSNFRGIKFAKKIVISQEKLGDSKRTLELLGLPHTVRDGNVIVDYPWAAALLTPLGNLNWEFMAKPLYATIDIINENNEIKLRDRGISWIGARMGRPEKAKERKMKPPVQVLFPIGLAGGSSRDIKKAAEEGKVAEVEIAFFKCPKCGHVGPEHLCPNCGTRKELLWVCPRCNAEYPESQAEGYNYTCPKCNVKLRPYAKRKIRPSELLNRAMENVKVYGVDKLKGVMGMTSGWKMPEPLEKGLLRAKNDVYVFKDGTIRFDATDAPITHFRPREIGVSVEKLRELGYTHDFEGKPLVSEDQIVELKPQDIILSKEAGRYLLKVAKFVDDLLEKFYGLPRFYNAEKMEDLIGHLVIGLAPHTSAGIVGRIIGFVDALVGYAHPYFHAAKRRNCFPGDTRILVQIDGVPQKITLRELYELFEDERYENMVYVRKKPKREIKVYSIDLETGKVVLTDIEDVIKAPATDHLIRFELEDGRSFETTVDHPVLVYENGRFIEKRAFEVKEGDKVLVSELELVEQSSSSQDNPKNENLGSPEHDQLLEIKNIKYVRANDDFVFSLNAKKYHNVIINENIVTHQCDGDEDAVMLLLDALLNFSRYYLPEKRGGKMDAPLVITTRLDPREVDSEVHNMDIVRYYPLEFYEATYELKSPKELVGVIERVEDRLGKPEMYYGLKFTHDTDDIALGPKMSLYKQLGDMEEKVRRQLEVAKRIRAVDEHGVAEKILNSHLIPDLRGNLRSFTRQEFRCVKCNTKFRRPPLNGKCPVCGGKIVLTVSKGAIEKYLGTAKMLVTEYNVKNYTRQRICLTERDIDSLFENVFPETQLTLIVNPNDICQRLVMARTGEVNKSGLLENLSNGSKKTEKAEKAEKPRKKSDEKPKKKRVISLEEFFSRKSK

Results are given in words; binding and its absence hold for the method and conditions named. Binding can be weak; no strength is given.

B1: PCNA (proliferative cell nuclear antigen) from Pyrococcus abyssi (natural protein, UniProt Q9UYX8 1-249, looked up)
chain: MPFEIVFEGAKEFAQLIETASRLIDEAAFKVTEEGISMRAMDPSRVVLIDLNLPASIFSKYEVDGEETIGVNMDHLKKVLKRGKAKETLILRKGEENFLEISLQGTATRTFKLPLIDVEEIEVDLPELPFTAKVVILGDVIKEAVKDASLVSDSMKFIAKENEFTMRAEGETQEVEVKLTLEDEGLLDIEVQEETKSAYGISYLSDMVKGLGKADEVTIKFGNEMPMQMEYYIRDEGRLIFLLAPRVEE
notes: PCNA, Pyrococcus abyssi; open reading frame optimized and synthesized, in pET28-a(+) with a thrombin-cleavable N-terminal 6xHis tag; PCNA as used in cryo-EM, crystallisation, BLI (analyte) and primer extension; also called sliding clamp; source: E. coli BL21-CodonPlus (DE3)-RIPL, purified (heat step, HisTrap, heparin, size exclusion)
B1: the binding entry is listed as “binds”.

These data come from publication PMC7101311 (Nature Communications, 2020).
